Assay results as given in publication PMC2853562.
No constants are given. Whether binding was seen depends on the method and setting. Binding seen in cells or lysates may run through a third protein. Binding calls can cover weak binding; strength is not graded here. Where a sequence is shown, tags or fusion partners need not be part of it.

B1: GADD45B-V5 (protein, UniProt P22339 1-160)
chain: MTLEELVASDNAVQKMQAVTAAVEQLLVAAQRQDRLTVGVYEAAKLMNVDPDSVVLCLLAIDEEEEDDIALQIHFTLIQSFCCDNDIDIVRVSGMQRLAQLLGEPAETLGTTEARDLHCLLVTNCHTDSWKSQGLVEVASYCEESRGNNQWVPYISLEER
B2: CAR-V5 (receptor, UniProt O35627 1-358)
chain: MTAMLTLETMASEEEYGPRNCVVCGDRATGYHFHALTCEGCKGFFRRTVSKTIGPICPFAGRCEVSKAQRRHCPACRLQKCLNVGMRKDMILSAEALALRRARQAQRRAEKASLQLNQQQKELVQILLGAHTRHVGPMFDQFVQFKPPAYLFMHHRPFQPRGPVLPLLTHFADINTFMVQQIIKFTKDLPLFRSLTMEDQISLLKGAAVEILHISLNTTFCLQTENFFCGPLCYKMEDAVHAGFQYEFLESILHFHKNLKGLHLQEPEYVLMAATALFSPDRPGVTQREEIDQLQEEMALILNNHIMEQQSRLQSRFLYAKLMGLLADLRSINNAYSYELQRLEELSAMTPLLGEICS

Target: Flag-MKK7
Test: co-IP; Flag-MKK7 co-expressed with CAR-V5 and/or GADD45B-V5 in HEK293T cells; lysates incubated with anti-Flag M2-agarose 1 h at 4°C; Western blot with anti-V5 and anti-Flag

| Binder | binding |
| --- | --- |
| B1 | binds |
| B2 | binds |
